PubChem BioAssay AID1224830 – NIAID – 2016
Purpose: 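Host factors that control LPS-induced TNF expression in human macrophages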 (primary screen). Cell system: human THP-1 monocytic leukaemia cells, TNF dual-luciferase reporter clone, PMA-differentiated to macrophage-like cells. Reagents: siRNA pool against human genes, 50 nM. Duration: LPS for 4 h, given about 3 days after siRNA transfection. Treatment: bacterial LPS (TLR4 ligand), 10 ng/ml. Detection: 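Ratio of firefly to renilla light, scaled to the plate median and expressed as a robust z-score per replicate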. Reading the numbers: TNF reporter robust z-score: higher = stronger TNF reporter response to LPS. Hit rule: 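Each well counts as active if its z-score is over 2.8 or under -1.5; controls are left without a call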.
The deposit covers about 18,000 reagents; shown is a part drawn at random. About 2,900 of all reagents (16%) count as active. 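Calls are made per well; low scores hint the gene aids the LPS response, high scores that it dampens it.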 Repeated entries: four replicate wells of each siRNA pool. No sequences are given here.

| gene | TNF reporter robust z-score | Call |
| --- | --- | --- |
| STK10 (serine/threonine kinase 10) | -0.33 | inactive |
| STK10 (serine/threonine kinase 10) | 1.35 | inactive |
| STK10 (serine/threonine kinase 10) | 0.06 | inactive |
| STK10 (serine/threonine kinase 10) | 1.08 | inactive |
| SPATA7 (spermatogenesis associated 7) | -0.73 | inactive |
| SPATA7 (spermatogenesis associated 7) | 0.24 | inactive |
| SPATA7 (spermatogenesis associated 7) | 1.36 | inactive |
| SPATA7 (spermatogenesis associated 7) | 0.15 | inactive |
| PELI2 (pellino E3 ubiquitin protein ligase family member 2) | -0.12 | inactive |
| PELI2 (pellino E3 ubiquitin protein ligase family member 2) | -0.17 | inactive |
| PELI2 (pellino E3 ubiquitin protein ligase family member 2) | -0.74 | inactive |
| PELI2 (pellino E3 ubiquitin protein ligase family member 2) | -0.52 | inactive |
| ATPSCKMT (ATP synthase c subunit lysine N-methyltransferase) | 0.86 | inactive |
| ATPSCKMT (ATP synthase c subunit lysine N-methyltransferase) | -0.41 | inactive |
| ATPSCKMT (ATP synthase c subunit lysine N-methyltransferase) | 0.01 | inactive |
| ATPSCKMT (ATP synthase c subunit lysine N-methyltransferase) | 0.71 | inactive |
| OTOGL (otogelin like) | -0.03 | inactive |
| OTOGL (otogelin like) | -0.44 | inactive |
| OTOGL (otogelin like) | -0.47 | inactive |
| KRT82 (keratin 82) | -0.84 | inactive |
| KRT82 (keratin 82) | -0.32 | inactive |
| KRT82 (keratin 82) | -0.77 | inactive |
| KRT82 (keratin 82) | -0.82 | inactive |
| FNDC4 (fibronectin type III domain containing 4) | -0.33 | inactive |
| FNDC4 (fibronectin type III domain containing 4) | 0.37 | inactive |
| FNDC4 (fibronectin type III domain containing 4) | 0.51 | inactive |
| FNDC4 (fibronectin type III domain containing 4) | -0.67 | inactive |
| TENT5D (terminal nucleotidyltransferase 5D) | -1.41 | inactive |
| TENT5D (terminal nucleotidyltransferase 5D) | -0.96 | inactive |
| TENT5D (terminal nucleotidyltransferase 5D) | 0.12 | inactive |
| TENT5D (terminal nucleotidyltransferase 5D) | -1.19 | inactive |
| RCAN3 (regulator of calcineurin 3) | 0.06 | inactive |
| RCAN3 (regulator of calcineurin 3) | 1 | inactive |
| RCAN3 (regulator of calcineurin 3) | -0.18 | inactive |
| RCAN3 (regulator of calcineurin 3) | 0.39 | inactive |
| CCBE1 (collagen and calcium binding EGF domains 1) | -0.42 | inactive |
| CCBE1 (collagen and calcium binding EGF domains 1) | 1.73 | inactive |
| CCBE1 (collagen and calcium binding EGF domains 1) | -0.32 | inactive |
| CCBE1 (collagen and calcium binding EGF domains 1) | -0.17 | inactive |
| EBNA1BP2 (EBNA1 binding protein 2) | 1.8 | inactive |
| EBNA1BP2 (EBNA1 binding protein 2) | 1.28 | inactive |
| EBNA1BP2 (EBNA1 binding protein 2) | 0.63 | inactive |
| EBNA1BP2 (EBNA1 binding protein 2) | 1.52 | inactive |
| ADAM17 (ADAM metallopeptidase domain 17) | -0.61 | inactive |
| ADAM17 (ADAM metallopeptidase domain 17) | 0.76 | inactive |
| ADAM17 (ADAM metallopeptidase domain 17) | -0.1 | inactive |
| ADAM17 (ADAM metallopeptidase domain 17) | 0 | inactive |
| CADPS2 (calcium dependent secretion activator 2) | -0.87 | inactive |
| CADPS2 (calcium dependent secretion activator 2) | -0.59 | inactive |
| CADPS2 (calcium dependent secretion activator 2) | -0.39 | inactive |
| CADPS2 (calcium dependent secretion activator 2) | 0.27 | inactive |
| POTEG (POTE ankyrin domain family member G) | -1.55 | active |
| POTEG (POTE ankyrin domain family member G) | -0.74 | inactive |
| POTEG (POTE ankyrin domain family member G) | -0.89 | inactive |
| POTEG (POTE ankyrin domain family member G) | -1.25 | inactive |
| CCDC60 (coiled-coil domain containing 60) | -0.81 | inactive |
| CCDC60 (coiled-coil domain containing 60) | -0.41 | inactive |
| CCDC60 (coiled-coil domain containing 60) | -0.5 | inactive |
| CCDC60 (coiled-coil domain containing 60) | -0.6 | inactive |
| TUFM (Tu translation elongation factor, mitochondrial) | 0.57 | inactive |
| TUFM (Tu translation elongation factor, mitochondrial) | -0.1 | inactive |
| TUFM (Tu translation elongation factor, mitochondrial) | 0.52 | inactive |
| TUFM (Tu translation elongation factor, mitochondrial) | 0.4 | inactive |
| COL21A1 (collagen type XXI alpha 1 chain) | 0.84 | inactive |
| COL21A1 (collagen type XXI alpha 1 chain) | -0.22 | inactive |
| COL21A1 (collagen type XXI alpha 1 chain) | -0.4 | inactive |
| COL21A1 (collagen type XXI alpha 1 chain) | 0.05 | inactive |
| DENND2C (DENN domain containing 2C) | -0.64 | inactive |
| DENND2C (DENN domain containing 2C) | -0.14 | inactive |
| DENND2C (DENN domain containing 2C) | -0.38 | inactive |
| DENND2C (DENN domain containing 2C) | -0.37 | inactive |
| CGRRF1 (cell growth regulator with ring finger domain 1) | -0.9 | inactive |
| CGRRF1 (cell growth regulator with ring finger domain 1) | 1.13 | inactive |
| CGRRF1 (cell growth regulator with ring finger domain 1) | -0.23 | inactive |
| CGRRF1 (cell growth regulator with ring finger domain 1) | 1.68 | inactive |
| CAPN7 (calpain 7) | -0.1 | inactive |
| CAPN7 (calpain 7) | 0.11 | inactive |
| CAPN7 (calpain 7) | 0.18 | inactive |
| CAPN7 (calpain 7) | 0.02 | inactive |
| WDR76 (WD repeat domain 76) | 0.57 | inactive |
| WDR76 (WD repeat domain 76) | 1.37 | inactive |
| WDR76 (WD repeat domain 76) | 0.79 | inactive |
| WDR76 (WD repeat domain 76) | 0.75 | inactive |
| OR10A6 | 0.78 | inactive |
| OR10A6 | 2.63 | inactive |
| OR10A6 | 2.05 | inactive |
| OR10A6 | 1.99 | inactive |
| ZCWPW2 (zinc finger CW-type and PWWP domain containing 2) | 0.46 | inactive |
| ZCWPW2 (zinc finger CW-type and PWWP domain containing 2) | -0.55 | inactive |
| ZCWPW2 (zinc finger CW-type and PWWP domain containing 2) | -1.12 | inactive |
| ZCWPW2 (zinc finger CW-type and PWWP domain containing 2) | 0.07 | inactive |
| ZNF12 (zinc finger protein 12) | 0.06 | inactive |
| ZNF12 (zinc finger protein 12) | -0.61 | inactive |
| ZNF12 (zinc finger protein 12) | 0.6 | inactive |
| ZNF12 (zinc finger protein 12) | 0.64 | inactive |
| CIP2A (cellular inhibitor of PP2A) | -1.29 | inactive |
| CIP2A (cellular inhibitor of PP2A) | -1.07 | inactive |
| CIP2A (cellular inhibitor of PP2A) | -1.25 | inactive |
| CIP2A (cellular inhibitor of PP2A) | -1.5 | inactive |
| CEP44 (centrosomal protein 44) | -0.04 | inactive |
| CEP44 (centrosomal protein 44) | 0.37 | inactive |
| CEP44 (centrosomal protein 44) | 1.17 | inactive |
| CEP44 (centrosomal protein 44) | 0.04 | inactive |
| CHRD (chordin) | -0.17 | inactive |
| CHRD (chordin) | 0.32 | inactive |
| CHRD (chordin) | 1.12 | inactive |
| CHRD (chordin) | 0.37 | inactive |
| APOH (apolipoprotein H) | 0.81 | inactive |
| APOH (apolipoprotein H) | 0.64 | inactive |
| APOH (apolipoprotein H) | 0.59 | inactive |
| APOH (apolipoprotein H) | 1.15 | inactive |

In a second layout: entries from further up.
gene | TNF reporter robust z-score | Call
STK10 (serine/threonine kinase 10) | 0.06 | inactive
STK10 (serine/threonine kinase 10) | 1.08 | inactive
SPATA7 (spermatogenesis associated 7) | -0.73 | inactive
SPATA7 (spermatogenesis associated 7) | 0.24 | inactive
SPATA7 (spermatogenesis associated 7) | 1.36 | inactive
SPATA7 (spermatogenesis associated 7) | 0.15 | inactive
PELI2 (pellino E3 ubiquitin protein ligase family member 2) | -0.12 | inactive
PELI2 (pellino E3 ubiquitin protein ligase family member 2) | -0.17 | inactive
PELI2 (pellino E3 ubiquitin protein ligase family member 2) | -0.74 | inactive
